Where “and” joins values, the source holds several entries; their conditions need not be identical. Identical values can stand only once. Counter-ions that a name gives are not always drawn. ± gives the standard deviation of the averaged measurements. The list shows a part of the results. Single values are uncertain, as repeats are few or missing.

This test deals with RAW 264.7. Briefly: cell viability (MTT) relative to vehicle control; higher = more viable cells. Particulars: stimulus: HMGB1 5 ug/ml, 18 h.
The mark [1] stands for this setting: compound concentration: 1 ug/ml.

Broadly, the cell viability is a read-out of living cells in per cent, often relative to untreated cells. Regarding `CCCn1c(=O)c2[nH]c(-c3ccc(S(=O)(=O)O)cc3)nc2n(CCC)c1=O` [1,3-Dipropyl-8-p-sulfophenylxanthine], the cell viability (compound concentration: 3 uM) came out at 102%. Consider `Cc1cc(-n2c(=O)[nH]c(=O)n(C)c2=O)ccc1Oc1ccc(SC(F)(F)F)cc1` [Toltrazuril], for which, where the note is “compound concentration: 3 uM”, the cell viability is 96.6 ± 2.7%. The same measure, in the same setting: as for `Cc1cc(-n2c(=O)[nH]c(=O)n(C)c2=O)ccc1Oc1ccc(SC(F)(F)F)cc1`, the figure is 107%.

Regarding `CC(=O)Oc1ccc(-c2coc3cc(OC4OC(COC5OCC(OC(C)=O)C(OC(C)=O)C5OC(C)=O)C(OC(C)=O)C(OC(C)=O)C4OC(C)=O)cc(OC(C)=O)c3c2=O)cc1` (stereo not drawn) [Genistein -7-O-Glc-Xyl, Acetate], under setting [1], the cell viability was 114%. As to `COc1cccc(C(=O)NNC2OC(CO)C(O)C2O)c1` (stereo not drawn), the cell viability under setting [1] was found to be 102%. Take `COc1ccc2[nH]c([S+]([O-])Cc3ncc(C)c(OC)c3C)nc2c1` (stereo not drawn) [Omeprazole]: the cell viability (compound concentration: 3 uM) came to 94.9 ± 3.5%. The same measure, in the same setting: to `COc1ccc2[nH]c([S+]([O-])Cc3ncc(C)c(OC)c3C)nc2c1` (stereo not drawn) belongs 91.9% and 104%; to `Nc1nc(SCc2ccc([N+](=O)[O-])cc2)c2ncn([C@@H]3O[C@H](CO)[C@H](O)C3O)c2n1` (stereo partly drawn) [S-(4-Nitrobenzyl)-6-thioguanosine], 106%. On the same count and under the same terms, to `CC(=O)Oc1c(C)c(C)c2c(c1C)CCC(C)(CCCC(C)CCCC(C)CCCC(C)C)O2` (stereo not drawn) [alpha-TOCHOPHERYL ACETATE] belongs 109%; to `CC(=O)Nc1ccc(O)cc1`, 112%. Same read-out and setting: to `CC(=O)Nc1ccc(O)cc1` [Acetaminophen] belongs 90.4%; to `Brc1c(NC2=NCCN2)ccc2nccnc12`, 114%. As to `CN(C)CCOC(=O)COc1ccc(Cl)cc1` [Meclofenoxate hydrochloride], the cell viability (compound concentration: 3 uM) came to 129%.

With `CN(C)CCOC(=O)COc1ccc(Cl)cc1` [Centrophenoxine hydrochloride], the cell viability (compound concentration: 3 uM) was 105%. On the same count and under the same terms, as for `CN(C)CCOC(=O)COc1ccc(Cl)cc1`, the figure is 106%. Turning to `O=C1CC(c2ccc(O)cc2)Oc2ccccc21` (stereo not drawn) [4'-hydroxyflavanone], the cell viability under setting [1] was determined as 101%. As to `OC(CCN1CCCCC1)(c1ccccc1)C1CCCCC1` (stereo not drawn) [Trihexyphenidyl hydrochloride], under “compound concentration: 3 uM”, the cell viability came to 115%.

On to `OC(CCN1CCCCC1)(c1ccccc1)C1CCCCC1` (stereo not drawn), for which, under “compound concentration: 3 uM”, the cell viability stood at 106%.

Regarding `OC(CCN1CCCCC1)(c1ccccc1)C1CCCCC1` (stereo not drawn) [Trihexyphenidyl-D,L Hydrochloride], the cell viability (compound concentration: 3 uM) was determined as 108%. Still for that read-out and setting: to `N=C(N)N/N=C/c1c(Cl)cccc1Cl` [Guanabenz] belongs 106%; to `N=C(N)N/N=C/c1c(Cl)cccc1Cl`, 103%; to `N=C(N)N/N=C/c1c(Cl)cccc1Cl` [Guanabenz acetate], 99.4 ± 8.8%.

`Cc1ccc2c(Cl)cc(Cl)c(O)c2n1`: where the note is “compound concentration: 3 uM”, the cell viability was 111%.

Regarding `CCCc1nc(C(C)(C)O)c(C(=O)O)n1Cc1ccc(-c2ccccc2-c2nnn[nH]2)cc1` [Olmesartan], where the note is “compound concentration: 3 uM”, the cell viability was found to be 104 ± 2%. On the same count and under the same terms, as for `N#C/C(=C\c1ccc(O)c(O)c1)C(=O)NCCCNC(=O)/C(C#N)=C/c1ccc(O)c(O)c1` [Tyrphostin AG 537], the figure is 114%. Regarding `O=C(OCc1ccccc1)c1ccccc1`, the cell viability (compound concentration: 3 uM) was found to be 103%. The same measure, in the same setting: to `O=C(CC(=O)c1ccccc1)c1ccccc1` belongs 84.9%.

Take `CO[C@@H]1[C@H](O)[C@@H](CO)O[C@H]1n1ccc(N)nc1=O` [2'-O-Methylcytidine]: under setting [1], the cell viability amounted to 91.5%. With `CCC(=O)OCC(=O)[C@@]1(OC(=O)CC)[C@H](C)C[C@H]2[C@H]3[C@H]([C@@H](O)C[C@@]21C)[C@@]1(C)C=CC(=O)C=C1C[C@H]3Cl` [Alclometasone dipropionate], the cell viability (compound concentration: 3 uM) turned out to be 147%. On the same count and under the same terms, as for `CN(CCOc1ccc(CC2SC(=O)NC2=O)cc1)c1ccccn1` (stereo not drawn), the figure is 105% and 99.5% and 113%; as for `CN(CCOc1ccc(CC2SC(=O)NC2=O)cc1)c1ccccn1` (stereo not drawn) [Rosiglitazone], 128%. Turning to `CN(C)CC[C@@H](c1ccc(Cl)cc1)c1ccccn1`, the cell viability (compound concentration: 3 uM) was 109% and 104%. Take `COc1ccc(-c2oc3ccccc3c(=O)c2O)cc1` [4'-Methoxyflavonol]: under setting [1], the cell viability stood at 91.9%.

With `COC(=O)C(N)CS` (stereo not drawn), the cell viability (compound concentration: 3 uM) came to 109%.

Regarding `COc1cccc(-c2cc(=O)c3c(O)cccc3o2)c1` [5-Hydroxy-3'-methoxyflavone], under setting [1], the cell viability was 90.6%. For the molecule `CC(N)C12CC3CC(CC(C3)C1)C2` (stereo not drawn) [Rimantadine], the cell viability (compound concentration: 3 uM) was determined as 99.3 ± 12%. For the molecule `CC(N)C12CC3CC(CC(C3)C1)C2` (stereo not drawn), the cell viability (compound concentration: 3 uM) came to 105%. On the same count and under the same terms, to `c1ccc2c(c1)CCCc1cc(NCCN3CCOCC3)nnc1-2` belongs 123%; to `Nc1cc(-c2ccncc2)c[nH]c1=O` [Amrinone], 103%; to `C[C@H]1C[C@@H]2[C@H]([C@@H](O)C[C@@]3(C)[C@H]2CC[C@]3(O)C(=O)COC(=O)CCC(=O)O)[C@@]2(C)C=CC(=O)C=C12`, 115%.

For the molecule `O=C(O)/C(=C\c1c(C(=O)O)[nH]c2cc(Cl)cc(Cl)c12)c1ccccc1`, the cell viability (compound concentration: 3 uM) is 118%. With `CN(C)[C@@H]1C(O)=C(C(N)=O)C(=O)[C@@]2(O)C(O)=C3C(=O)c4c(O)ccc(Cl)c4[C@@H](O)[C@H]3C[C@@H]12` [Demeclocycline hydrochloride], the cell viability (compound concentration: 3 uM) was found to be 114 ± 21%. Still for that read-out and setting: as for `CN(C)[C@@H]1C(O)=C(C(N)=O)C(=O)[C@@]2(O)C(O)=C3C(=O)c4c(O)ccc(Cl)c4[C@@H](O)[C@H]3C[C@@H]12`, the figure is 99.6%. On to `NC(N)=O`, for which the cell viability (compound concentration: 3 uM) was found to be 101%. The same measure, in the same setting: to `COC(=O)c1ccc(O)c2nc3c(C=O)c(O)cc(O)c3nc12` [Lomofungin] belongs 111%. On the same count and under the same terms, as for `Cn1c([N+](=O)[O-])cnc1COC(N)=O` [Ronidazole], the figure is 101%. On the same count and under the same terms, as for `Cn1c([N+](=O)[O-])cnc1COC(N)=O`, the figure is 103%; as for `O=C1c2ccccc2S(=O)(=O)N1CCCCN1CCN(c2ncccn2)CC1` [Ipsapirone], 112%; as for `N[C@@H](C(=O)N[C@@H]1C(=O)N2C(C(=O)O)=C(Cl)CS[C@H]12)c1ccccc1`, 102 ± 1.6%. For `N[C@@H](C(=O)N[C@@H]1C(=O)N2C(C(=O)O)=C(Cl)CS[C@H]12)c1ccccc1` [Cefaclor], the cell viability by setting is: under setting [1], 92.9%; (compound concentration: 3 uM) 102 ± 7%.

Consider `COc1ccc(C(=O)NCc2ccc(OCCN(C)C)cc2)cc1OC`, for which the cell viability (compound concentration: 3 uM) turned out to be 101%.

For `COc1ccc(C(=O)NCc2ccc(OCCN(C)C)cc2)cc1OC` [Itopride], the cell viability (compound concentration: 3 uM) came to 124 ± 26%. `COc1cccc2oc(-c3ccc(O)cc3)cc(=O)c12`: under setting [1], the cell viability amounted to 82.6%. On the same count and under the same terms, as for `C[C@@H]1C[C@@]2(O[C@H]2C)C(=O)O[C@@H]2CCN(C)C/C=C(/COC(=O)[C@]1(C)O)C2=O` [Otosenine], the figure is 96.3%.

With `NCCS(=O)O` [Hypotaurine], the cell viability (compound concentration: 3 uM) came to 106%. Take `OC[C@H]1O[C@@H](O[C@@H]2[C@@H](CO)OC(O)(CO)[C@H]2O)[C@H](O)[C@@H](O)[C@H]1O` (mixture of isomers) [Lactulose]: the cell viability under setting [1] came to 106%. Turning to `OC[C@H]1O[C@@H](O[C@@H]2[C@@H](CO)OC(O)(CO)[C@H]2O)[C@H](O)[C@@H](O)[C@H]1O` (mixture of isomers), the cell viability (compound concentration: 3 uM) was found to be 105%. The same measure, in the same setting: as for `CC(Oc1ccccc1)C(=O)N[C@@H]1C(=O)N2[C@@H]1SC(C)(C)[C@@H]2C(=O)O` (stereo partly drawn) [Phenethicillin potassium salt], the figure is 126%; as for `CC(Oc1ccccc1)C(=O)N[C@@H]1C(=O)N2[C@@H]1SC(C)(C)[C@@H]2C(=O)O` (stereo partly drawn), 106%. On the same count and under the same terms, as for `CC(C)NC[C@H](O)c1ccc(O)c(O)c1` [R(-)-Isoproterenol (+)-bitartrate], the figure is 101%; as for `COc1ccc(-c2cc(C(F)F)nn2-c2ccc(S(N)(=O)=O)cc2)cc1F`, 102%; as for `CC(=O)Nc1ccc(CC(=O)O)cc1`, 92.2%. In the case of `O=c1oc2ccccc2c(-c2ccccc2)c1-c1ccc(Cl)cc1Cl` [3(2',4'-Dichlorophenyl)-4-phenylcoumarin], under setting [1], the cell viability came to 99.8%. `CNCCC(Oc1ccc(C(F)(F)F)cc1)c1ccccc1` (stereo not drawn) [Fluoxetine]: the cell viability (compound concentration: 3 uM) stood at 96.8%.

`CNCCC(Oc1ccc(C(F)(F)F)cc1)c1ccccc1` (stereo not drawn): the cell viability (compound concentration: 3 uM) was 104%. The same measure, in the same setting: to `CNCCC(Oc1ccc(C(F)(F)F)cc1)c1ccccc1` (stereo not drawn) [Fluoxetine hydrochloride] belongs 97.9 ± 12%; to `Cc1nc2n(c(=O)c1CCN1CCC(c3noc4cc(F)ccc34)CC1)CCCC2`, 89.5%.

Regarding `Cc1nc2n(c(=O)c1CCN1CCC(c3noc4cc(F)ccc34)CC1)CCCC2` [Risperidone], the cell viability (compound concentration: 3 uM) came out at 99.4 ± 8.9%. On the same count and under the same terms, as for `N=C(N)NCCC[C@H](N)C(=O)O` [L-Arginine], the figure is 103%; as for `C#CCN1C(C)=C(C(=O)OC)C(c2cccc([N+](=O)[O-])c2)C(C(=O)OCC)=C1C` (stereo not drawn), 101%; as for `OCc1cc(C(O)CNCCCCCCOCCCCc2ccccc2)ccc1O` (stereo not drawn) [Salmeterol xinafoate], 112%.

In the case of `OCc1cc(C(O)CNCCCCCCOCCCCc2ccccc2)ccc1O` (stereo not drawn) [Salmeterol], the cell viability (compound concentration: 3 uM) is 104 ± 5.6%. Same read-out and setting: as for `O=C(O)Cc1sc(-c2ccccc2)nc1-c1ccc(Cl)cc1` [Fentiazac], the figure is 118 ± 23%.

As to `COc1ccc(-c2cc(=O)c3ccc(O)cc3o2)cc1`, the cell viability under setting [1] came out at 103%.

In the case of `N[C@@H](C(=O)N[C@@H]1C(=O)N2C(C(=O)O)=C(CSc3cn[nH]n3)CS[C@H]12)c1ccc(O)cc1`, where the note is “compound concentration: 3 uM”, the cell viability turned out to be 96.1%.

With `CCN1CC(CCN2CCOCC2)C(c2ccccc2)(c2ccccc2)C1=O` (stereo not drawn), the cell viability (compound concentration: 3 uM) was found to be 96.9%. For the molecule `Nc1ncnc2c1ncn2[C@@H]1O[C@H](COP(=O)(O)OP(=O)(O)OP(=O)(O)O)[C@@H](O)[C@H]1O`, the cell viability under setting [1] was 104%. With `COc1cc2cc3c4c(cc(OC)c(OC)c4c2cc1OC)CCN3C` [Dehydroglaucine], the cell viability under setting [1] worked out at 98.2%. With `CCOC(=O)OC(C)OC1=C(C(=O)Nc2ccccn2)N(C)S(=O)(=O)c2ccccc21` (stereo not drawn) [Ampiroxicam], the cell viability (compound concentration: 3 uM) was 95.2%. The same measure, in the same setting: as for `CCOC(=O)OC(C)OC1=C(C(=O)Nc2ccccn2)N(C)S(=O)(=O)c2ccccc21` (stereo not drawn), the figure is 99.9%; as for `CC(=O)[C@H]1CC[C@H]2[C@@H]3C[C@H](C)C4=CC(=O)CC[C@]4(C)[C@H]3[C@@H](O)C[C@]12C`, 120%. Still for that read-out and setting: as for `CC(=O)[C@H]1CC[C@H]2[C@@H]3C[C@H](C)C4=CC(=O)CC[C@]4(C)[C@H]3[C@@H](O)C[C@]12C` [Medrysone], the figure is 133%. For the molecule `COc1ccc(-c2oc3ccccc3c(=O)c2O)cc1OC`, the cell viability under setting [1] came to 97.4%. On to `O=C(O)c1cc(-c2ccc(F)cc2F)ccc1O`, for which, where the note is “compound concentration: 3 uM”, the cell viability stood at 95.5%.

With `O=C(O)c1cc(-c2ccc(F)cc2F)ccc1O` [Diflunisal], the cell viability (compound concentration: 3 uM) stood at 90.9 ± 5.6%. Still for that read-out and setting: as for `CCCCNC(=O)NS(=O)(=O)c1ccc(C)cc1`, the figure is 112%. The same measure, in the same setting: as for `CCCCNC(=O)NS(=O)(=O)c1ccc(C)cc1` [Tolbutamide], the figure is 104 ± 13%.

The values above are taken from the supplement of paper PMC3682954.
